## Screening data

The results are deposited in PubChem (AID504749; NCATS, 2011).

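Malaria parasite (P. falciparum) lines kept in red blood cells; parasite DNA is measured by SYBR Green fluorescence after lysis, 72 h after compound addition. Each compound was titrated across a series from about 0.000037 to 29 µM. The number is the fitted AC50, the concentration giving a half-maximal change in signal; a lower value means higher potency, whether the curve shows a decrease or an increase. Calls follow the curve class and fit quality: every row here is inconclusive, covering signal-raising curves and weak, poorly fitted, partial or highest-dose-only inhibition curves.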

Values are in µM. All entries here are filed as inconclusive. Only part of the assay is shown, chiefly results filed as inconclusive. Potencies fitted to partial, single-point or poorly fitting curves are rough.

SMILES,setting,potency (µM),curve
c1ccc2c(c1)Nc1ccccc1S2,CP217,6.31,"inhibitor, partial curve, poor fit"
c1ccc2c(c1)Nc1ccccc1S2,ECU,10,"inhibitor, single point"
c1ccc2c(c1)Nc1ccccc1S2,CP215,13.46,"inhibitor, single point"
c1ccc2c(c1)Nc1ccccc1S2,CP305,16.94,"inhibitor, single point"
c1ccc2c(c1)Nc1ccccc1S2,P93_24,8.912,"inhibitor, single point"
c1ccc2c(c1)Nc1ccccc1S2,CP269,9.528,"inhibitor, partial curve"
c1ccc2c(c1)Nc1ccccc1S2,PC15,7.943,"inhibitor, partial curve"
c1ccc2c(c1)Nc1ccccc1S2,PC26,6.746,"inhibitor, partial curve"
c1ccc2c(c1)Nc1ccccc1S2,DFO2036,8.912,"inhibitor, partial curve, poor fit"
c1ccc2c(c1)Nc1ccccc1S2,CP291,9.528,"inhibitor, single point"
c1ccc2c(c1)Nc1ccccc1S2,CP237,5.012,"inhibitor, partial curve"
c1ccc2c(c1)Nc1ccccc1S2,DIV30,19.01,"inhibitor, single point"
CCOC(=O)C1=C[C@]2(CC)CCCN3CCc4c(n1c1ccccc41)[C@@H]32,C2A,11.22,"inhibitor, partial curve"
CCOC(=O)C1=C[C@]2(CC)CCCN3CCc4c(n1c1ccccc41)[C@@H]32,P94_40,12.59,"inhibitor, single point"
CCOC(=O)C1=C[C@]2(CC)CCCN3CCc4c(n1c1ccccc41)[C@@H]32,CP315,15.1,"inhibitor, single point"
CCOC(=O)C1=C[C@]2(CC)CCCN3CCc4c(n1c1ccccc41)[C@@H]32,FAB9,17.78,"inhibitor, single point"
CCOC(=O)C1=C[C@]2(CC)CCCN3CCc4c(n1c1ccccc41)[C@@H]32,ATS189,14.13,"inhibitor, single point"
CCOC(=O)C1=C[C@]2(CC)CCCN3CCc4c(n1c1ccccc41)[C@@H]32,GB4,19.01,"inhibitor, single point"
CCOC(=O)C1=C[C@]2(CC)CCCN3CCc4c(n1c1ccccc41)[C@@H]32,CP185,11.22,"inhibitor, single point"
CCOC(=O)C1=C[C@]2(CC)CCCN3CCc4c(n1c1ccccc41)[C@@H]32,CP260,12.59,"inhibitor, single point"
CCOC(=O)C1=C[C@]2(CC)CCCN3CCc4c(n1c1ccccc41)[C@@H]32,PC15,10,"inhibitor, single point"
CCOC(=O)C1=C[C@]2(CC)CCCN3CCc4c(n1c1ccccc41)[C@@H]32,CP215,16.94,"inhibitor, single point"
CCOC(=O)C1=C[C@]2(CC)CCCN3CCc4c(n1c1ccccc41)[C@@H]32,CP191,17.78,"inhibitor, single point"
CCOC(=O)C1=C[C@]2(CC)CCCN3CCc4c(n1c1ccccc41)[C@@H]32,ECU,11.22,"inhibitor, single point"
CCOC(=O)C1=C[C@]2(CC)CCCN3CCc4c(n1c1ccccc41)[C@@H]32,3D7,17.78,"inhibitor, single point"
CCOC(=O)C1=C[C@]2(CC)CCCN3CCc4c(n1c1ccccc41)[C@@H]32,HB3,11.22,"inhibitor, single point"
CCOC(=O)C1=C[C@]2(CC)CCCN3CCc4c(n1c1ccccc41)[C@@H]32,PAD,10,"inhibitor, single point"
CCOC(=O)C1=C[C@]2(CC)CCCN3CCc4c(n1c1ccccc41)[C@@H]32,CP194,16.94,"inhibitor, single point"
CCOC(=O)C1=C[C@]2(CC)CCCN3CCc4c(n1c1ccccc41)[C@@H]32,CP211,19.01,"inhibitor, single point"
CCOC(=O)C1=C[C@]2(CC)CCCN3CCc4c(n1c1ccccc41)[C@@H]32,CP250,17.78,"inhibitor, single point"
CCOC(=O)C1=C[C@]2(CC)CCCN3CCc4c(n1c1ccccc41)[C@@H]32,CP238,15.85,"inhibitor, single point"
CCOC(=O)C1=C[C@]2(CC)CCCN3CCc4c(n1c1ccccc41)[C@@H]32,CP256,12.59,"inhibitor, single point"
CCOC(=O)C1=C[C@]2(CC)CCCN3CCc4c(n1c1ccccc41)[C@@H]32,JCK,17.78,"inhibitor, single point"
CCOC(=O)C1=C[C@]2(CC)CCCN3CCc4c(n1c1ccccc41)[C@@H]32,Dd2,14.13,"inhibitor, partial curve"
CCOC(=O)C1=C[C@]2(CC)CCCN3CCc4c(n1c1ccccc41)[C@@H]32,CP237,11.22,"inhibitor, single point"
CCOC(=O)C1=C[C@]2(CC)CCCN3CCc4c(n1c1ccccc41)[C@@H]32,TAB113,11.22,"inhibitor, single point"
CCOC(=O)C1=C[C@]2(CC)CCCN3CCc4c(n1c1ccccc41)[C@@H]32,CP201,19.01,"inhibitor, single point"
CCOC(=O)C1=C[C@]2(CC)CCCN3CCc4c(n1c1ccccc41)[C@@H]32,CP252,15.85,"inhibitor, single point"
CCOC(=O)C1=C[C@]2(CC)CCCN3CCc4c(n1c1ccccc41)[C@@H]32,CP247,4.467,"inhibitor, partial curve"
CCOC(=O)C1=C[C@]2(CC)CCCN3CCc4c(n1c1ccccc41)[C@@H]32,PC49,10,"inhibitor, single point"
CCOC(=O)C1=C[C@]2(CC)CCCN3CCc4c(n1c1ccccc41)[C@@H]32,W2,8.492,"inhibitor, partial curve, poor fit"
CCOC(=O)C1=C[C@]2(CC)CCCN3CCc4c(n1c1ccccc41)[C@@H]32,CP305,13.46,"inhibitor, single point"

Some entries from above, unchanged:

Result for CCOC(=O)C1=C[C@]2(CC)CCCN3CCc4c(n1c1ccccc41)[C@@H]32 [PC15] was potency 10 µM (inhibitor, single point).
Result for CCOC(=O)C1=C[C@]2(CC)CCCN3CCc4c(n1c1ccccc41)[C@@H]32 [CP185] was potency 11.22 µM (inhibitor, single point).
Result for c1ccc2c(c1)Nc1ccccc1S2 [CP269] was potency 9.528 µM (inhibitor, partial curve).